Results are given in words; binding and its absence hold for the method and conditions named. Some entries that bind do so weakly or less than the wild type.
B1: Ab.27 Fab (Fab, V domains shown)
VH: EVQLLESGGGLVKPGGSLRLSCAASGFTFSSYSMNWVRQAPGKGLEWVSSISTSSNFIYYADSVKGRFTISRDNAKNSLYLQMNSLRAEDTAVYYCARDLGRYYYYMDVWGKGTTVTVSS
VL: DIVMTQSPSSLSASVGDRVTITCRASQSISSWLAWFQQKPGKAPKSLIYAASSLQSGVPSKFSGSGSGTDFTLTISSLQPEDVATYYCQKYNSAPFTFGPGTKVDIK
B2: Ab.32 Fab (Fab, V domains shown)
VH: EVQLLESGGGLVKPGGSLRLSCAASGFTFSSYSMNWVRQAPGKGLEWVSSISTSSNFIYYADSVKGRFTISRDNAKNSLYLQMNSLRAEDTAVYYCARDLGRYYYYMDVWGKGTTVTVSS
VL: DIVMTQSPSSLSASVGDRVTITCRASQSISSWLAWYQQKPGKAPKSLIYAASSLQSGVPSKFSGSGSGTDFTLTISSLQPEDFATYYCQKYNSAPFTFGPGTKVDIK
B3: Ab.25 Fab (Fab, V domains shown)
VH: EVQLLESGGGLVKPGGSLRLSCAASGFTFSSYSMNWVRQAPGKGLEWVSSISTSSNYIYYADSVKGRFTISRDNAKNSLYLQMNSLRAEDTAVYYCARDLGRYYYYMDVWGKGTTVTVSS
VL: DIVMTQSPSSLSASVGDRVTITCRASQSISSWLAWYQQKPGKAPKSLIYAASSLQSGVPSKFSGSGSGTDFTLTISSLQPEDVATYYCQKYNSAPFTFGPGTKVDIK
B4: Ab.29 Fab (Fab, V domains shown)
VH: EVQLLESGGGLVKPGGSLRLSCAASGFTFSSYSMNWVRQAPGKGLEWVSSISTSSNFIYYADSVKGRFTISRDNAKNSLYLQMNSLRAEDTAVYYCARDLGRYYYYMDVWGKGTTVTVSS
VL: DIVMTQSPSSLSASVGDRVTITCRASQSISSWLAWYQQKPGKVPKSLIYAASSLQSGVPSKFSGSGSGTDFTLTISSLQPEDVATYYCQKYNSAPFTFGPGTKVDIK
B5: Ab.31 Fab (Fab, V domains shown)
VH: EVQLLESGGGLVKPGGSLRLSCAASGFTFSSYSMNWVRQAPGKGLEWVSSISTSSNFIYYADSVKGRFTISRDNAKNSLYLQMNSLRAEDTAVYYCARDLGRYYYYMDVWGKGTTVTVSS
VL: DIVMTQSPSSLSASVGDRVTITCRASQSISSWLAWYQQKPGKAPKSLIYAASSLQSGVPSRFSGSGSGTDFTLTISSLQPEDVATYYCQKYNSAPFTFGPGTKVDIK
B6: Ab.28 Fab (Fab, V domains shown)
VH: EVQLLESGGGLVKPGGSLRLSCAASGFTFSSYSMNWVRQAPGKGLEWVSSISTSSNFIYYADSVKGRFTISRDNAKNSLYLQMNSLRAEDTAVYYCARDLGRYYYYMDVWGKGTTVTVSS
VL: DIVMTQSPSSLSASVGDRVTITCRASQSISSWLAWYQQKPEKAPKSLIYAASSLQSGVPSKFSGSGSGTDFTLTISSLQPEDVATYYCQKYNSAPFTFGPGTKVDIK
B7: Ab.33 Fab (Fab, V domains shown)
VH: EVQLLESGGGLVKPGGSLRLSCAASGFTFSSYSMNWVRQAPGKGLEWVSSISTSSNFIYYADSVKGRFTISRDNAKNSLYLQMNSLRAEDTAVYYCARDLGRYYYYMDVWGKGTTVTVSS
VL: DIVMTQSPSSLSASVGDRVTITCRASQSISSWLAWYQQKPGKAPKSLIYAASSLQSGVPSKFSGSGSGTDFTLTISSLQPEDVATYYCQQYNSAPFTFGPGTKVDIK
B8: Ab.24 Fab (Fab, V domains shown)
VH: EVQLLESGGGLVKPGGSLRLSCAASGFTFSSYSMNWVRQAPGKGLEWVSSISTSSSFIYYADSVKGRFTISRDNAKNSLYLQMNSLRAEDTAVYYCARDLGRYYYYMDVWGKGTTVTVSS
VL: DIVMTQSPSSLSASVGDRVTITCRASQSISSWLAWYQQKPGKAPKSLIYAASSLQSGVPSKFSGSGSGTDFTLTISSLQPEDVATYYCQKYNSAPFTFGPGTKVDIK
B9: Ab.22 Fab (Fab, V domains shown)
VH: EVQLVESGGGLVKPGGSLRLSCAASGFTFSSYSMNWVRQAPGKGLEWVSSISTSSNFIYYADSVKGRFTISRDNAKNSLYLQMNSLRAEDTAVYYCARDLGRYYYYMDVWGKGTTVTVSS
VL: DIVMTQSPSSLSASVGDRVTITCRASQSISSWLAWYQQKPGKAPKSLIYAASSLQSGVPSKFSGSGSGTDFTLTISSLQPEDVATYYCQKYNSAPFTFGPGTKVDIK
B10: Ab.26 Fab (Fab, V domains shown)
VH: EVQLLESGGGLVKPGGSLRLSCAASGFTFSSYSMNWVRQAPGKGLEWVSSISTSSNFIYYADSVKGRFTISRDNAKNSLYLQMNSLRAEDTAVYYCARDLGRYYYYMDVWGKGTTVTVSS
VL: DIQMTQSPSSLSASVGDRVTITCRASQSISSWLAWYQQKPGKAPKSLIYAASSLQSGVPSKFSGSGSGTDFTLTISSLQPEDVATYYCQKYNSAPFTFGPGTKVDIK
B11: Ab.27 hG1 (antibody, V domains shown)
VH: EVQLLESGGGLVKPGGSLRLSCAASGFTFSSYSMNWVRQAPGKGLEWVSSISTSSNFIYYADSVKGRFTISRDNAKNSLYLQMNSLRAEDTAVYYCARDLGRYYYYMDVWGKGTTVTVSS
VL: DIVMTQSPSSLSASVGDRVTITCRASQSISSWLAWFQQKPGKAPKSLIYAASSLQSGVPSKFSGSGSGTDFTLTISSLQPEDVATYYCQKYNSAPFTFGPGTKVDIK
B12: Ab.28 hG1 (antibody, V domains shown)
VH: EVQLLESGGGLVKPGGSLRLSCAASGFTFSSYSMNWVRQAPGKGLEWVSSISTSSNFIYYADSVKGRFTISRDNAKNSLYLQMNSLRAEDTAVYYCARDLGRYYYYMDVWGKGTTVTVSS
VL: DIVMTQSPSSLSASVGDRVTITCRASQSISSWLAWYQQKPEKAPKSLIYAASSLQSGVPSKFSGSGSGTDFTLTISSLQPEDVATYYCQKYNSAPFTFGPGTKVDIK
B13: Ab.29 hG1 (antibody, V domains shown)
VH: EVQLLESGGGLVKPGGSLRLSCAASGFTFSSYSMNWVRQAPGKGLEWVSSISTSSNFIYYADSVKGRFTISRDNAKNSLYLQMNSLRAEDTAVYYCARDLGRYYYYMDVWGKGTTVTVSS
VL: DIVMTQSPSSLSASVGDRVTITCRASQSISSWLAWYQQKPGKVPKSLIYAASSLQSGVPSKFSGSGSGTDFTLTISSLQPEDVATYYCQKYNSAPFTFGPGTKVDIK
B14: Ab.31 hG1 (antibody, V domains shown)
VH: EVQLLESGGGLVKPGGSLRLSCAASGFTFSSYSMNWVRQAPGKGLEWVSSISTSSNFIYYADSVKGRFTISRDNAKNSLYLQMNSLRAEDTAVYYCARDLGRYYYYMDVWGKGTTVTVSS
VL: DIVMTQSPSSLSASVGDRVTITCRASQSISSWLAWYQQKPGKAPKSLIYAASSLQSGVPSRFSGSGSGTDFTLTISSLQPEDVATYYCQKYNSAPFTFGPGTKVDIK
B15: Ab.25 hG1 (antibody, V domains shown)
VH: EVQLLESGGGLVKPGGSLRLSCAASGFTFSSYSMNWVRQAPGKGLEWVSSISTSSNYIYYADSVKGRFTISRDNAKNSLYLQMNSLRAEDTAVYYCARDLGRYYYYMDVWGKGTTVTVSS
VL: DIVMTQSPSSLSASVGDRVTITCRASQSISSWLAWYQQKPGKAPKSLIYAASSLQSGVPSKFSGSGSGTDFTLTISSLQPEDVATYYCQKYNSAPFTFGPGTKVDIK
B16: Ab.22 hG1 (antibody, V domains shown)
VH: EVQLVESGGGLVKPGGSLRLSCAASGFTFSSYSMNWVRQAPGKGLEWVSSISTSSNFIYYADSVKGRFTISRDNAKNSLYLQMNSLRAEDTAVYYCARDLGRYYYYMDVWGKGTTVTVSS
VL: DIVMTQSPSSLSASVGDRVTITCRASQSISSWLAWYQQKPGKAPKSLIYAASSLQSGVPSKFSGSGSGTDFTLTISSLQPEDVATYYCQKYNSAPFTFGPGTKVDIK
B17: Ab.32 hG1 (antibody, V domains shown)
VH: EVQLLESGGGLVKPGGSLRLSCAASGFTFSSYSMNWVRQAPGKGLEWVSSISTSSNFIYYADSVKGRFTISRDNAKNSLYLQMNSLRAEDTAVYYCARDLGRYYYYMDVWGKGTTVTVSS
VL: DIVMTQSPSSLSASVGDRVTITCRASQSISSWLAWYQQKPGKAPKSLIYAASSLQSGVPSKFSGSGSGTDFTLTISSLQPEDFATYYCQKYNSAPFTFGPGTKVDIK
B18: Ab.34 hG1 (antibody, V domains shown)
VH: EVQLLESGGGLVKPGGSLRLSCAASGFTFSSYSMNWVRQAPGKGLEWVSSISTSSNFIYYADSVKGRFTISRDNAKNSLYLQMNSLRAEDTAVYYCARDLGRYYYYMDVWGKGTTVTVSS
VL: DIVMTQSPSSLSASVGDRVTITCRASQSISSWLAWYQQKPGKAPKSLIYAASSLQSGVPSKFSGSGSGTDFTLTISSLQPEDVATYYCQKYNSYPFTFGPGTKVDIK
B19: Ab.33 hG1 (antibody, V domains shown)
VH: EVQLLESGGGLVKPGGSLRLSCAASGFTFSSYSMNWVRQAPGKGLEWVSSISTSSNFIYYADSVKGRFTISRDNAKNSLYLQMNSLRAEDTAVYYCARDLGRYYYYMDVWGKGTTVTVSS
VL: DIVMTQSPSSLSASVGDRVTITCRASQSISSWLAWYQQKPGKAPKSLIYAASSLQSGVPSKFSGSGSGTDFTLTISSLQPEDVATYYCQQYNSAPFTFGPGTKVDIK
B20: Ab.24 hG1 (antibody, V domains shown)
VH: EVQLLESGGGLVKPGGSLRLSCAASGFTFSSYSMNWVRQAPGKGLEWVSSISTSSSFIYYADSVKGRFTISRDNAKNSLYLQMNSLRAEDTAVYYCARDLGRYYYYMDVWGKGTTVTVSS
VL: DIVMTQSPSSLSASVGDRVTITCRASQSISSWLAWYQQKPGKAPKSLIYAASSLQSGVPSKFSGSGSGTDFTLTISSLQPEDVATYYCQKYNSAPFTFGPGTKVDIK
B21: Ab.26 hG1 (antibody, V domains shown)
VH: EVQLLESGGGLVKPGGSLRLSCAASGFTFSSYSMNWVRQAPGKGLEWVSSISTSSNFIYYADSVKGRFTISRDNAKNSLYLQMNSLRAEDTAVYYCARDLGRYYYYMDVWGKGTTVTVSS
VL: DIQMTQSPSSLSASVGDRVTITCRASQSISSWLAWYQQKPGKAPKSLIYAASSLQSGVPSKFSGSGSGTDFTLTISSLQPEDVATYYCQKYNSAPFTFGPGTKVDIK

The chains behind the UniProt entries cited, without tags or fusion partners. Where a name states a change or a piece, a line headed by the entry shows the natural chain unless it says otherwise. Residues count along the entry.
UniProt Q13241: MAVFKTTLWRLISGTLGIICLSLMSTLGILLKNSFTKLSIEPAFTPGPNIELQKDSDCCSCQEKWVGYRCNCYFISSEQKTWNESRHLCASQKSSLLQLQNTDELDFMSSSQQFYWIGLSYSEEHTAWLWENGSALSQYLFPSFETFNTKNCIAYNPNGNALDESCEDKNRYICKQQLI
human CD94 protein: residues 34-179 of Q13241

molecular target: human CD94 protein (human) (UniProt Q13241); experiment: OCTET BLI, Fab on human CD94 protein

binding, binds:
B1
B2
B3
B4
B5
B6
B7
B8
B9
B10

molecular target: human CD94 expressed on cells (human primary NK cells in PBMCs; HEK cells expressing human CD94) (human) (UniProt Q13241); experiment: flow cytometry, human IgG1 on HEK cells expressing human CD94

binding, binds:
B11
B12
B13
B14
B15
B16
B17
B18
B19
B20
B21
